Experimental data as given in patent publication US5939096A, “Liposome drug-loading method and composition” (priority 1997, dated 1999).

Assays:
[1] = Loading into calcium acetate liposomes monitored by fluorescence; conditions: FIG. 5A
[2] = Quantitation of compound loaded into acetate gradient liposomes (gel exclusion chromatography, Triton X-100 release); conditions: 15 minutes, 25° C., 0.1 mM initial external concentration

Compound | change in external concentration without transmembrane acetate gradient ([1]; aqueous calcium acetate, no gradient) | fluorescence decrease (uptake) with acetate gradient ([1]; aqueous sodium sulfate, acetate-loaded liposomes) | internal concentration of nalidixic acid [2] | liposome-associated fraction of total fluorescence ([2]; FIG. 6B)
5(6)-carboxyfluorescein | no change in external concentration | a rapid decrease in fluorescence was observed |  | 
CCn1cc(C(=O)O)c(=O)c2ccc(C)nc21 [nalidixic acid] |  |  | about 1 mM | seventy two
